Source: publication PMC10721955

Tests used:
[1] = biological target: T1, HA-tagged human CRP2 (cysteine-and glycine-rich protein 2), in vitro translated (human) (UniProt Q16527); test: co-IP; in vitro protein binding assay: mixtures (500 ul) of in vitro translated tagged proteins (wheat germ extract) immunoprecipitated with anti-HA affinity matrix or anti-Flag M2 gel (control gel beside), immunoblot; relative binding affinity normalised to the control = 100%
T1 sequence: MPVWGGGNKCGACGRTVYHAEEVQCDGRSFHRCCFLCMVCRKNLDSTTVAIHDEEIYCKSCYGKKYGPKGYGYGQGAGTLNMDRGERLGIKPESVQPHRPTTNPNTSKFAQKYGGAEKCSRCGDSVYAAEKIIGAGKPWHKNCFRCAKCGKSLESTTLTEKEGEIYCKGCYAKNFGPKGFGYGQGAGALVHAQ

[2] = biological target: T2, Myc-tagged human SRF (serum response factor), in vitro translated (human) (UniProt P11831); test: DNA affinity binding assay; biotinylated 3xCArG probe on Streptavidin M-280 Dynabeads incubated with in vitro translated proteins at 4°C for 3 hours with rotation; probe-bound proteins detected by immunoblot; control Dynabeads and free 3xCArG as controls
T2 sequence: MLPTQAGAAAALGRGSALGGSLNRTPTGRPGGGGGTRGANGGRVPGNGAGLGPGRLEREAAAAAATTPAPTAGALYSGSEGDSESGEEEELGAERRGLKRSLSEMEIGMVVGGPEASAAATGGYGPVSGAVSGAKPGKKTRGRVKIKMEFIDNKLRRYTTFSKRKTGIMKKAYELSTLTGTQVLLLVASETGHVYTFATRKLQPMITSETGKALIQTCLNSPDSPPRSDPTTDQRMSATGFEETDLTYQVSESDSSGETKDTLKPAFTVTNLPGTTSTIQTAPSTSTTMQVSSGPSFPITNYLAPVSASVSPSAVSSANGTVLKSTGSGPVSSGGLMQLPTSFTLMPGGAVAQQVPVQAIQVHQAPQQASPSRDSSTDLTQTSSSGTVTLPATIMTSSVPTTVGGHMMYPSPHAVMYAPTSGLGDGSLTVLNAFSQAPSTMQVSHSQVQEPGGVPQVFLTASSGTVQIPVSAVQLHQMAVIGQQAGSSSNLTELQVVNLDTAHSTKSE

[3] = biological target: T3, human CRP2 SRR mutant (human) (UniProt Q16527); test: co-IP; in vitro protein binding assay: mixtures (500 ul) of in vitro translated tagged proteins (wheat germ extract) immunoprecipitated with anti-HA affinity matrix or anti-Flag M2 gel (control gel beside), immunoblot; relative binding affinity normalised to the control = 100%
T3 sequence: T1 sequence with S120A, R121V, R145A

[4] = biological target: T4, HA-CRP2ΔN (101-193 amino acids) (human) (UniProt Q16527); test: as above
T4 sequence: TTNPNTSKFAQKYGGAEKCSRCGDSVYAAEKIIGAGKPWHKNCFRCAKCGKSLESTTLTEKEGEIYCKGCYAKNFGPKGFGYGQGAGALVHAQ

[5] = biological target: T5, HA-CRP2ΔC (2-100 amino acids) (human) (UniProt Q16527); test: as above
T5 sequence: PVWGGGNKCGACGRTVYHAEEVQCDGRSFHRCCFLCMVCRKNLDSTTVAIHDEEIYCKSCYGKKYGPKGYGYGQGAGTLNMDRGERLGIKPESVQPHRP

[6] = biological target: T6, HA-tagged human CRP2, expressed in HSFs (human) (UniProt Q16527); test: co-IP; whole-cell extracts of HSFs transfected with Flag-MRTF-A and HA-CRP2 plasmids, immunoprecipitated with control gel, anti-HA affinity matrix or anti-Flag M2 gel, immunoblot
T6 sequence: T1 sequence

| Substance | binding [1] | binding [2] | binding [3] | binding [4] | binding [5] | binding [6] |
| --- | --- | --- | --- | --- | --- | --- |
| Flag-MAL fl D477-C, C-terminal domain of mouse MRTF-A (477-1021 amino acids) (domain or fragment) | binds |  |  |  |  |  |
| Flag-tagged mouse MRTF-A (MAL fl), in vitro translated | binds | binds | binds | binds | binds weakly |  |
| Flag-tagged mouse MRTF-A (MAL fl), expressed in HSFs |  |  |  |  |  | binds |

Changes are numbered by the printed parent chain. No constants are given. Whether binding was seen depends on the method and setting. A result given as binding can be weak or reduced; the word gives no strength. For some of these results: Tags and fused reporters may be left off the sequences shown. For some of these results: In cells and extracts the contact can be indirect.
